Data on three substances can be found in PMC4778132, “CC chemokine receptor 10 cell surface presentation in melanocytes is regulated by the novel interaction partner S100A10” (Scientific Reports, 2016).

The chains behind the UniProt entries cited, without tags or fusion partners.
UniProt P07355: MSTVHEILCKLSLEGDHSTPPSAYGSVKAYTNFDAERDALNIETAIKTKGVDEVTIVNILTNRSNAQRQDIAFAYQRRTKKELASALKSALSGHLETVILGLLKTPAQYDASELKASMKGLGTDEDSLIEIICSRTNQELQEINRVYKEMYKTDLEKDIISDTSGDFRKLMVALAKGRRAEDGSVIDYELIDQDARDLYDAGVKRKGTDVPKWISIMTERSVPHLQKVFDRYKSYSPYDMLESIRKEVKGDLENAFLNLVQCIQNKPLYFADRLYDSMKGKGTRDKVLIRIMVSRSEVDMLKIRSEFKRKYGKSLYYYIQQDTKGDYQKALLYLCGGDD
UniProt P60903: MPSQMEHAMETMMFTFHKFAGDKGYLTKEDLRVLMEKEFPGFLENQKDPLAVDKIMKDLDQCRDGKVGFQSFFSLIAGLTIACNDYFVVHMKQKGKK

These are yes or no findings as the source states them, for the method shown. For some of these results: In cells and extracts the contact can be indirect. Some entries that bind do so weakly or less than the wild type. For some of these results: Tags and fused reporters may be left off the sequences shown.

Assay [1] deals with T1, GST-CCR10 CT (C-terminal cytoplasmic tail of human CCR10 fused to GST) (human) (UniProt P46092).
T1 sequence: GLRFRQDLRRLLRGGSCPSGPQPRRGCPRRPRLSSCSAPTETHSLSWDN
Briefly: pull-down; GST fusion proteins (50 μg) on glutathione sepharose beads incubated with purified protein (10 μg), 2 hours at 4 °C, IP buffer (20 mM Tris-HCl pH 7.5, 25 mM NaCl, 10 mM NaF, 1 mM EDTA, 0.1% Triton-X 100); immunoblot; both purified. On the technique in general: Immunoblotting shows a protein as a band on a membrane.

Assay [2] has as its target T2, GST-CCR10 CT truncation mutant T2 (human) (UniProt P46092).
T2 sequence: GLRFRQDLRRLL
The assay is described as above.

Assay [3] has as its target T3, endogenous CC chemokine receptor 10 of UKRV-Mel-4 melanoma cells (human (endogenous in UKRV-Mel-4)) (UniProt P46092).
T3 sequence: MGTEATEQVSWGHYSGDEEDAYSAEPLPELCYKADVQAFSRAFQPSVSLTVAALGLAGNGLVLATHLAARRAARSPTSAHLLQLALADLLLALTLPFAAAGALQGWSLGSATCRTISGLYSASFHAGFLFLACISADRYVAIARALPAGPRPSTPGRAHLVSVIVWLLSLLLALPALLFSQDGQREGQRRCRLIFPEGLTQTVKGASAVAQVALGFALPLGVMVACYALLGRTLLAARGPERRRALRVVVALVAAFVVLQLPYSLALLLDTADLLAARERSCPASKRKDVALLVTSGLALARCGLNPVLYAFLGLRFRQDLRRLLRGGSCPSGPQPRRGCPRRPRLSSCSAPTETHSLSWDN
Briefly: proximity ligation; Duolink II in situ PLA on fixed UKRV-Mel-4 cells with primary antibodies against CCR10 and β-actin, S100A10 (H21) or anxA2 (HH7); cells transfected with control siRNA or S100A10 siRNA.

The target in assay [4] is T1, GST-CCR10 CT (C-terminal cytoplasmic tail of human CCR10 fused to GST) (human). Briefly: pull-down; GST fusion proteins (50 μg) on glutathione sepharose beads incubated with UKRV-Mel-4 cell lysate (500 μl, ~2 × 10^7 cells), 2 hours at 4 °C, IP buffer (20 mM Tris-HCl pH 7.5, 25 mM NaCl, 10 mM NaF, 1 mM EDTA, 0.1% Triton-X 100); immunoblot; only the target purified.

Consider “purified recombinant human annexin A2 (from UniProt P07355 1-339)”, for which the binding entry in assay [1] is given as “no binding (tested: 10 μg purified protein)”. Turning to “recombinant HIS-tagged human S100A10 (wild type) (from UniProt P60903 1-97)”, the binding entry in assay [2] is “binds weakly”. For “endogenous S100A10 of UKRV-Mel-4 melanoma cells (from UniProt P60903 1-97)”, the binding result in assay [3] and in assay [4] was “binds” each time.
